For one substance, binding results are on record in article PMC3157352.

The target in experiment [1] is T1, human RAD1, yeast two-hybrid fusion (human) (UniProt O60671).
T1 sequence: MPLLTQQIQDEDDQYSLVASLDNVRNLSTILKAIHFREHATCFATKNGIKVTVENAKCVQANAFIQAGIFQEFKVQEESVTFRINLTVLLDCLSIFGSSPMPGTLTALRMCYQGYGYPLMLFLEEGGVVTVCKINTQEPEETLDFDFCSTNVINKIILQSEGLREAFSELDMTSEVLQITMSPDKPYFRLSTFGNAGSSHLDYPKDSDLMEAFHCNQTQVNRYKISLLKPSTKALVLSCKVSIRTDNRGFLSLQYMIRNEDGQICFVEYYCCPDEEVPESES
Briefly: two-hybrid; S. cerevisiae AH109, pGADT7 (Gal4 activation domain) and pGBKT7 (Gal4 binding domain) fusions; spot assay on SD-L-W-H and SD-L-W-H-A; RAD18 against the 9-1-1 components also with DNA damage (50 Gy IR, HU, MMS, CPT).

Experiment [2] has as its target T2, human HUS1, yeast two-hybrid fusion (human) (UniProt O60921).
T2 sequence: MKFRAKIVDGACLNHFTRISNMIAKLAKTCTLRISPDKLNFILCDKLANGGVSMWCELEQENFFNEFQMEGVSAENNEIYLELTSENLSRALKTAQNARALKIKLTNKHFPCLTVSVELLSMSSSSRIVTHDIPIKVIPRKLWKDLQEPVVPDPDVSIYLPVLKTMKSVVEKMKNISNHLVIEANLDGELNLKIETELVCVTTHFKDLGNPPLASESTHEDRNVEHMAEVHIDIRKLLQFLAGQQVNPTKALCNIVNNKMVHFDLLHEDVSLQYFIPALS
The description is as above.

No constants are given. Whether binding was seen depends on the method and setting. Binding calls can cover weak binding; strength is not graded here. Tags and fused reporters may be left off the sequences shown.

For human RAD9, yeast two-hybrid fusion, the binding result in experiment [1] and in experiment [2] was “binds” in each case.
